Measurements reported in paper PMC12193833, “Toxicity Assessment and Antifungal Potential of Copper(II) and Silver(I) Complexes with 1,10-Phenanthroline-5,6-dione Against Drug-Resistant Clinical Isolates of Cryptococcus gattii and Cryptococcus neoformans” (Journal of Fungi, 2025).
Like-named read-outs stand apart in the source and are kept apart here.

Legend:
[1] = tested on: Galleria mellonella larvae; test: In vivo acute toxicity, single treatment; details: for Selectivity index (G. mellonella CC50/Cryptococcus MIC): G. mellonella larvae
Protocol: In this set of experiments, G. mellonella larvae weighing approximately 0.2–0.3 g and displaying clear, uniform coloration were used. The larvae were inoculated (10 µL/larva) using an insulin syringe (BD Ultra-Fine, Franklin Lakes, NJ, USA) at the last left proleg. […] We also assessed their coloration through visual analysis as an indicator of stress levels. Throughout the experiments, the larvae were maintained at 37 °C [19, 42]. Two distinct treatment protocols were designed to evaluate the effects of the test compounds on larval survivability, as detailed below.
For the acute toxicity analysis, the test compounds were administered to the larvae in a single inoculation at concentrations ranging from 1000 to 125 μM. Each group consisted of 10 larvae, while the control group received only sterile PBS with 4% DMSO. […] The SI was calculated using the following equation: SI = G. mellonella CC50/Cryptococcus MIC.

Sheep erythrocytes = details: for Selectivity index (erythrocyte CC50/Cryptococcus MIC): Erythrocytes
Protocol: To evaluate the hemolytic activity of the test compounds, the microdilution method was performed in PBS using 96-well cell culture plates, as described by Evans et al.. PBS containing the test compounds (phendione, Cu-phendione, and Ag-phendione) at varying concentrations (1.9–62.5 µM) was added to the wells. Sheep erythrocytes (Cultilab, Rio de Janeiro, RJ, Brazil) were diluted in PBS to a final concentration of 2% (approximately 2 × 10^8 erythrocytes) and added to each well. The final volume of each well was 200 μL. A negative control (PBS and blood) and a positive control (PBS, blood, and 1% Triton X-100) were also included. The plates were incubated at 37 °C for 24 h, then centrifuged at 500× g for 10 min at 4 °C. Following centrifugation, 100 μL of the supernatant from each well was transferred to a new 96-well microplate, and absorbance was measured using a microplate reader ([…] SkyHigh; Thermo Scientific, Waltham, MA, USA) at 415 nm. […] The average absorbance of the positive control was set as 100% hemolysis, and the percentage hemolysis of the other groups was calculated accordingly. The selectivity index (SI) was determined using the following equation: SI = erythrocyte CC50/Cryptococcus MIC.

[2] = C. gattii MIC, listed as Ag-Phendione
[3] = C. neoformans MIC, listed as Ag-Phendione

O.O.O.O.O=C1C(=O)c2cccnc2-c2ncccc21.O=C1C(=O)c2cccnc2-c2ncccc21.O=C1C(=O)c2cccnc2-c2ncccc21.[Cu+2].[O-][Cl+3]([O-])([O-])[O-].[O-][Cl+3]([O-])([O-])[O-] [Cu-phendione, [Cu(phendione)3](ClO4)2·4H2O]
Selectivity index (G. mellonella larvae) ([1]; Cryptococcus clinical isolates overall, single administration): at least 160 | Selectivity index (G. mellonella CC50/Cryptococcus MIC) ([1]; C. gattii MIC): >160 | Selectivity index (G. mellonella CC50/Cryptococcus MIC) ([1]; C. neoformans MIC): >320 | Selectivity index (erythrocyte CC50/Cryptococcus MIC) (Sheep erythrocytes; C. gattii MIC): >10 | Selectivity index (erythrocyte CC50/Cryptococcus MIC) (Sheep erythrocytes; C. neoformans MIC): >20

O=C1C(=O)c2cccnc2-c2ncccc21.O=C1C(=O)c2cccnc2-c2ncccc21.[Ag+].[O-][Cl+3]([O-])([O-])[O-] [Ag-phendione, [Ag(phendione)2]ClO4]
Selectivity index (G. mellonella CC50/Cryptococcus MIC) ([1]; C. gattii MIC): exceeding 641 | Selectivity index (G. mellonella CC50/Cryptococcus MIC) [1, 2]: >641 | Selectivity index (G. mellonella CC50/Cryptococcus MIC) ([1]; C. neoformans MIC): exceeding 641 | Selectivity index (G. mellonella CC50/Cryptococcus MIC) [1, 3]: >641 | Selectivity index (erythrocytes) (Sheep erythrocytes; Cryptococcus overall (abstract)): > 40 | Selectivity index (erythrocyte CC50/Cryptococcus MIC) (Sheep erythrocytes; C. gattii MIC): > 40 | Selectivity index (erythrocyte CC50/Cryptococcus MIC) (Sheep erythrocytes; [2]): >40 | Selectivity index (erythrocyte CC50/Cryptococcus MIC) (Sheep erythrocytes; C. neoformans MIC): > 40 | Selectivity index (erythrocyte CC50/Cryptococcus MIC) (Sheep erythrocytes; [3]): >40
